Consider 42 sequences from PMC7819943, “Rice protein-binding microarrays: a tool to detect cis-acting elements near promoter regions in rice”.

By UniProt entry, the sequences of proteins in these tests, tags left out.
UniProt Q0JBA9, entry or part of it: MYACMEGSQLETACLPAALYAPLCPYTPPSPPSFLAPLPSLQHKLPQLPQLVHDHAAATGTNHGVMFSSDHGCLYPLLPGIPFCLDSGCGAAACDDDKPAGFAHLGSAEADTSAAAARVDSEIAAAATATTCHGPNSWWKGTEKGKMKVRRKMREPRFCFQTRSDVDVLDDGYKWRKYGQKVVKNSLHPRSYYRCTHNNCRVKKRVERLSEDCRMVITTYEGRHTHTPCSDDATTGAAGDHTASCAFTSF

The other results are listed elsewhere or left out.

The target of this experiment is OsWRKY34 (Oryza sativa, UniProt Q0JBA9 1-250). The experiment in a line: protein-binding microarray (RPBM); PBS, 2% BSA, 51.3 ng/ul salmon testes DNA, 50 uM zinc acetate, 200 nM TF, 25 C, 1 h; high values mean tight binding. The following applies: protein: recombinant; tags: N-terminal polyhistidine and DsRed monomer fusion (pET32a); label: CyDye5-dUTP incorporated in the synthesized complementary strand; 3' TTTTT single-stranded linker to array surface; dsDNA, one strand shown. In a few lines: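 Transcription factors were made in E. coli BL21-CodonPlus as N-terminal fusions to a polyhistidine tag and DsRed, then purified on Ni–NTA. After primer extension with Cy5-dUTP and blocking with 2% BSA, a custom Agilent array was exposed for 1 h at 25 °C to 200 nM protein in PBS, 2% BSA, salmon testes DNA and 50 µM zinc acetate. Washed arrays were scanned on an Axon 4000B, and the binding signal is per-feature fluorescence intensity in arbitrary units.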
Consider “GGCTTACAATGATTTGGCCGAACAATCTACGTCTCGTCTCCGGAGTCACCTAGTGCAG”, for which the binding signal is 8230 fluorescence intensity (a.u.).

Regarding “AGTTGAAATTAGTTTATTTCATCCCTGAATGTTCCTTTCTCGGAGTCACCTAGTGCAG”, the binding signal was 8050 fluorescence intensity (a.u.). On to “GATAATCCTCGCACATCTCGCTTCCCATCTCGTTTCCACCCGGAGTCACCTAGTGCAG”, for which the binding signal is 10700 fluorescence intensity (a.u.). Next, “GCCGCGTCTTCTTGTCAACTCACCTGCTCTGCTCGTGCCCCGGAGTCACCTAGTGCAG”: 9920 fluorescence intensity (a.u.).

“TATCACTATTTCATACTTAAATTTAATGCTACTTATCTCACGGAGTCACCTAGTGCAG”: the binding signal was 9260 fluorescence intensity (a.u.). Next, “AATACACCAAAATCGCCGCCCAAACTCAAATTATCTTATTCGGAGTCACCTAGTGCAG”: 8340 fluorescence intensity (a.u.). Next, “GGGGCAAAACCGTCTTTCTCCTCATCCAGCTACAGTCATCCGGAGTCACCTAGTGCAG”: 8560 fluorescence intensity (a.u.). Next, “ACTGAAAAGTTGTGTGTGTATGACAGGTTGATGTGATGGACGGAGTCACCTAGTGCAG”: 8740 fluorescence intensity (a.u.).

Consider “TCTTGCCATCGCCGCTCCAAGCGAGCTGAACCTTCGCCGGCGGAGTCACCTAGTGCAG”, for which the binding signal is 8610 fluorescence intensity (a.u.). As for “CTCATAAACTTTAAACTTTTCCGTCACATCATTCTAATTTCGGAGTCACCTAGTGCAG”, the binding signal was 10200 fluorescence intensity (a.u.).

For “CACTCTGCCTCACCTCACCTCACCTCACGTCCTCACCTCCCGGAGTCACCTAGTGCAG”, the binding signal is 10300 fluorescence intensity (a.u.).

On to “CTAATTCTTTGCTTAGTTTTCTGTGTCAAGAGGCCTCAAACGGAGTCACCTAGTGCAG”, for which the binding signal is 8250 fluorescence intensity (a.u.). Turning to “GGGTGGGGAAGGCCCTTTACGATCCTACAATTGTTATTAGCGGAGTCACCTAGTGCAG”, the binding signal is 12100 fluorescence intensity (a.u.). Next, “TCCCAGCCGTTGGATTAGCCCTTCACCGCCGTCCAAACCCCGGAGTCACCTAGTGCAG”: 8110 fluorescence intensity (a.u.). Next, “AACTATTTTCATCCCTCGAGGACATATCTCCTCGTTGTTTCGGAGTCACCTAGTGCAG”: 11100 fluorescence intensity (a.u.); “TGTTGCTATCGCGTCCTGCTCTGCCACCACCGTCGCCGCGCGGAGTCACCTAGTGCAG”: 10100 fluorescence intensity (a.u.); “ACTTTTTTTTAAGACAAACATGTAACCTACTCCTGTCTAACGGAGTCACCTAGTGCAG”: 8160 fluorescence intensity (a.u.).

In the case of “ACCTCCTCCGCTTTCACGCAGGTCATCCATCCCACCAACTCGGAGTCACCTAGTGCAG”, the binding signal was 10500 fluorescence intensity (a.u.).

Turning to “GTCTGACAGTGGGCCCAACCGTTTTTCCTTTTTATCCTTGCGGAGTCACCTAGTGCAG”, the binding signal was 8060 fluorescence intensity (a.u.). Next, “CCTTGTACTGATCCAGCTACCTACTCCACTCCACTACCATCGGAGTCACCTAGTGCAG”: 8880 fluorescence intensity (a.u.). For the sequence “GGCTGGAGAGAGAGAGGATGACAAGTGGGCCCCACAATATCGGAGTCACCTAGTGCAG”, the binding signal was 9750 fluorescence intensity (a.u.). The result for “TAGTTGGAGGTCTCAAAGTGGACTTTTCCAATGGCATTTCCGGAGTCACCTAGTGCAG” reads 8080 fluorescence intensity (a.u.); that for “GCTTCATGGATTCTTCTGCGTCTAATAATTTTCCCGTTCTCGGAGTCACCTAGTGCAG”, 8280 fluorescence intensity (a.u.); that for “GCTAGTGTTCTCGAGTCCAAACATTCATGGACGGTCGGGGCGGAGTCACCTAGTGCAG”, 9680 fluorescence intensity (a.u.).

Consider “CAATTTGACTCCCTCGGCAGTTTTGGATGGTGGTTTCGCTCGGAGTCACCTAGTGCAG”, for which the binding signal was 9020 fluorescence intensity (a.u.). Next, “CGATGGCTGGAGGGGAGGCGGCGGCGCATCGTGGCGGGCGCGGAGTCACCTAGTGCAG”: 8030 fluorescence intensity (a.u.); “ATCACTTTTCTAGCATCCATATTTCTACATGCATCCTTACCGGAGTCACCTAGTGCAG”: 8690 fluorescence intensity (a.u.); “GGGTGGTTGGGTTGTGGATAGCGGCTGCGACGACGAGGGCCGGAGTCACCTAGTGCAG”: 10400 fluorescence intensity (a.u.). In the case of “TACCACTCTTTTAGTTCTTCCTAATATTTTGCCATTATAGCGGAGTCACCTAGTGCAG”, the binding signal was 9140 fluorescence intensity (a.u.).

Take “CTTTTCCGTGGTGTTTTCTCGCGTGATCTGCACGCGGGTTCGGAGTCACCTAGTGCAG”: the binding signal was 9750 fluorescence intensity (a.u.). With “TCGGCCTACCTGCTCTCTTCTCCTGCCCGGCCGATTGCTACGGAGTCACCTAGTGCAG”, the binding signal was 9780 fluorescence intensity (a.u.).

On to “CCTTCCCAATTCTGCTTCAACCCCTTCTGTTTTTTTCAGACGGAGTCACCTAGTGCAG”, for which the binding signal is 8840 fluorescence intensity (a.u.).

With “TTTTTTTGTGCTTCCTTTATTTTTCACAACGAGAAGTTTACGGAGTCACCTAGTGCAG”, the binding signal is 8280 fluorescence intensity (a.u.). The result for “GGTTAGGAGGTCACAGGTGGTGGTTCCAGATCCGTTAGCGCGGAGTCACCTAGTGCAG” reads 8930 fluorescence intensity (a.u.); that for “ACATAATCTCCTTGTAATCTTAATCGATCGCTCCTGTTTCCGGAGTCACCTAGTGCAG”, 11000 fluorescence intensity (a.u.).

“GGTTTGTCCTAAGTCAAATATGCATATCTTTGACCATTAGCGGAGTCACCTAGTGCAG”: the binding signal is 10400 fluorescence intensity (a.u.). The result for “GGGCAGGGAAGGATCTTCGATAGGCTTTGATGAGCAGGGGCGGAGTCACCTAGTGCAG” reads 9030 fluorescence intensity (a.u.).

Consider “AATGGTCAAACGTTGGATAAAAAGTCAACGGCGTCATACACGGAGTCACCTAGTGCAG”, for which the binding signal was 14700 fluorescence intensity (a.u.). The result for “TTTCCTAATAGTAGTACTTGACAGCCTATCACTCCACCAACGGAGTCACCTAGTGCAG” reads 8910 fluorescence intensity (a.u.); that for “GACCATAGTTCCAGCGACTTAAATTCATTCGGCCCATCAACGGAGTCACCTAGTGCAG”, 9210 fluorescence intensity (a.u.); that for “CATGCTCCTTGCCCTTTTCAATCTTCATAGATCCTATCTACGGAGTCACCTAGTGCAG”, 9670 fluorescence intensity (a.u.). Next, “ATATACATTTAATTCTATTTGATTTTCTGTTTCACATCTTCGGAGTCACCTAGTGCAG”: 8730 fluorescence intensity (a.u.).
